The values that follow come from PubChem BioAssay AID2685 (National Center for Advancing Translational Sciences (NCATS), 2010).

This assay in a line: qHTS Assay for Lipid Storage Modulators in Drosophila S3 Cells.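 As to cell number change: cells counted by Cell Tracker Red CMTPX staining in the red channel.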 The conditions noted are these: BODIPY lipid droplet fluorescence, 18-24 h; for cell number change: measured here: cell count max response, cells fed with added oleic acid. A digest of the protocol: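 Drosophila S3 cells loaded with oleic acid (400 uM, as added) and compounds at several concentrations; lipid droplets imaged by 488-nm laser-scanning cytometry, 500–530 nm intensity and object ratio to cell channel. Percent activity normalized to 20 uM Triacsin C.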

Where [1] appears, read: measured here: lipid fluorescence (Fed channel) AC50, cells fed with added oleic acid.
[2] abbreviates: measured here: cell number channel AC50, cells fed with added oleic acid.

The list shows a part of the results. The main result of the screen is listed elsewhere. These columns were measured beside it and carry no call. Compounds called inactive in the main read-out are mostly missing here. Words in brackets tell the shape of the fitted curve; partial curves, single points and poor fits give uncertain potencies.

Broadly, the AC50 is the concentration giving half of the maximal activity seen. Read a high AC50 as activity only at high concentration. In the case of `CCOc1cc2c(cc1OCC)C(c1ccccc1)N(c1ccccc1)C(=O)C2` (stereo unspecified), the cell number change turned out to be 5.08%. Under setting [1], the half-maximal activity concentration (AC50) was 7.31 µM [rising, partial curve, poor fit].

As to `Cc1noc(C)c1S(=O)(=O)N1CCCC1C(=O)NC(C)(C)C` (stereo unspecified), the cell number change was -11.2%.

With `CCOC(=O)c1sc(-c2ccccn2)nc1C`, the cell number change turned out to be 48.5%. Besides, under setting [2], the concentration at half-maximal activity (AC50) was 1.64 µM [rising, partial curve, poor fit]. For the same compound, the concentration at half-maximal activity (AC50) under setting [1] is 5.8 µM [falling, single point]. Regarding `CCOc1ccc(S(=O)(=O)N2CCN(c3ccc(C)cc3C)CC2)cc1`, the cell number change came to 35.3%. The concentration at half-maximal activity (AC50) under setting [2] is 29.1 µM [rising, partial curve]. On to `O=C(Nc1ccccn1)c1ccc(Cl)s1`, for which the cell number change was 40%. Moreover, the half-maximal activity concentration (AC50) under setting [1] is 0.316 µM [rising, full curve, poor fit]. In the case of `COc1ccc(NC(=O)C2=C(C)NC(=O)NC2c2cccc(OC)c2OC)c(OC)c1` (stereo unspecified), the cell number change turned out to be 106%. The half-maximal activity concentration (AC50) under setting [2] is 2.59 µM [rising, full curve]. In addition, the AC50 under setting [1] was 2.06 µM [rising, full curve]. Regarding `COc1ccc(C2=NCCn3nc4ccccc4c32)cc1`, the cell number change was 14.3%. Also, the AC50 under setting [1] is 0.58 µM [rising, single point]. Take `CCOc1ncccc1C(=O)N1CCN(c2cccc(C)c2C)CC1`: the cell number change is -19.9%. Besides, the AC50 under setting [2] is 4.11 µM [falling, single point]. Also, under setting [1], the concentration at half-maximal activity (AC50) is 1.64 µM [falling, partial curve]. For the compound `O=C(N/N=C/c1cccc(O)c1)c1cc(-c2ccccc2)nc2ccccc12`, the cell number change came out at 25.7%. In addition, the half-maximal activity concentration (AC50) under setting [1] is 0.366 µM [falling, full curve]. As for `COc1ccc(-n2nc(C(=O)NCC(=O)N3CCN(c4cccc(Cl)c4)CC3)c3ccccc3c2=O)c(OC)c1`, the cell number change came to 20.3%. Further, under setting [1], the AC50 is 29.1 µM [rising, single point]. Consider `COc1ccc2cc3cc(C(=O)NCCCN4CCC(C)CC4)oc3nc2c1`, for which the cell number change is 56.9%. Further, the AC50 under setting [2] was 29.1 µM [rising, single point]. As to `CCOC(=O)c1ccc(NC(=S)NCCc2ccccc2F)cc1`, the cell number change turned out to be 2.43%. With `c1ccc(-n2cnc3cc(NCc4ccncc4)ccc32)cc1`, the AC50 under setting [1] was 0.092 µM [rising, full curve, poor fit]. For `O=C(NC1=NCCS1)C12CC3CC(C1)CC(C(=O)NC1=NCCS1)(C3)C2`, the AC50 is 2.06 µM [falling, partial curve] under setting [2] and 0.58 µM [falling, single point] under setting [1]. As to `C/C(N)=C(/C#N)C(=O)COC(=O)c1ccccc1Oc1ccccc1`, the cell number change came to 18%. Moreover, under setting [2], the AC50 was 0.0517 µM [rising, full curve, poor fit]. Under setting [1], the AC50 was 0.00461 µM [rising, full curve, poor fit]. With `CCOc1ccc(N2CC(O)=C(c3ccccc3)C2=N)cc1`, the cell number change is -5.46%. Besides, under setting [2], the concentration at half-maximal activity (AC50) is 6.51 µM [rising, single point].

`Cc1ccc(C(=O)Cn2c(NCCO)nc3ccccc32)cc1`: the cell number change was determined as 2.37%. Moreover, the AC50 under setting [1] was 2.91 µM [rising, single point].

With `O=C(NCc1ccco1)c1cc2sccc2n1Cc1ccccc1`, the cell number change was -53.6%. Further, the concentration at half-maximal activity (AC50) under setting [2] was 18.4 µM [falling, partial curve]. Besides, the half-maximal activity concentration (AC50) under setting [1] is 8.2 µM [falling, partial curve]. Consider `CC(Oc1ccc2ccc(=O)oc2c1)C(=O)NCCN1CCOCC1` (stereo unspecified), for which the cell number change came out at 16.4%. Also, the AC50 under setting [1] was 29.1 µM [rising, single point].

In the case of `O=C(O)c1cc(C(=O)O)cc(-c2ccc(/C=c3/sc4nc5ccccc5n4c3=O)o2)c1`, the cell number change worked out at 9.34%. Also, under setting [1], the AC50 is 0.164 µM [falling, full curve, poor fit]. For the compound `Cc1ccccc1/C=C1\CCCc2ccccc2C1=O`, the cell number change is -24.6%. In addition, under setting [1], the AC50 was 29.1 µM [falling, single point]. In the case of `N=c1c2c(-c3ccccc3)c(-c3ccccc3)n(Cc3ccco3)c2ncn1CCN1CCOCC1`, the cell number change amounted to 1.24%. Moreover, the AC50 under setting [2] was 0.517 µM [falling, full curve]. The AC50 under setting [1] is 9.2 µM [falling, partial curve, poor fit]. On to `O=c1[nH]c(N/N=C\c2ccc3c(c2)OCO3)nc2ccccc12`, for which the cell number change was -45.2%. Under setting [1], the half-maximal activity concentration (AC50) was 29.1 µM [falling, single point]. For `COc1cccc2sc3ccc(C#Cc4ccc(N)cc4)cc3c(=O)c12`, the cell number change is -47.3%. The AC50 under setting [2] is 32.6 µM [falling, single point]. Also, under setting [1], the concentration at half-maximal activity (AC50) was 0.231 µM [falling, full curve, poor fit].

Regarding `Oc1ccc(C(=S)N2CCCC2)cc1`, the cell number change is -6.87%. Take `Nc1nc(-c2ccccc2)c(N=Nc2ccc(Cl)cc2)s1`: the cell number change was -79.3%. Besides, the AC50 under setting [2] is 29.1 µM [falling, single point]. In addition, under setting [1], the AC50 is 10.3 µM [falling, partial curve]. In the case of `Cc1ccc(-c2nc(CS(=O)CC(=O)NC3CC3)c(C)o2)cc1` (stereo unspecified), the cell number change is -12.7%. In addition, under setting [1], the AC50 was 0.231 µM [rising, full curve, poor fit].

Take `COc1ccc(Nc2c(-c3ccc(OC)cc3)nc3cnccn23)cc1`: the cell number change was determined as 0.814%. In addition, the AC50 under setting [2] is 6.51 µM [rising, single point]. The AC50 under setting [1] was 3.26 µM [rising, single point]. For the compound `COc1cc(C)ccc1OCC(=O)NC1CCCCCC1`, the cell number change was -1.65%. Besides, the AC50 under setting [1] is 0.092 µM [rising, full curve, poor fit]. As to `CCOC1(/N=C(\C)NS(=O)(=O)c2ccc(Cl)cc2)C(C)=CC(=O)C=C1C`, the cell number change was -7.65%. Take `COC(=O)Cn1c(=NC(=O)c2ccc([N+](=O)[O-])s2)sc2cc(Br)ccc21`: the AC50 under setting [2] was 29.1 µM [rising, single point]. Consider `CN=C(Nc1cc(C)nn1-c1ccccc1)c1ccc(F)cc1`, for which the cell number change came to 2.88%. Regarding `CC(=O)Nc1ccc(S(=O)(=O)NC(CC(=O)O)c2ccc(C)cc2)cc1` (stereo unspecified), the cell number change is -25.4%. The AC50 under setting [1] is 4.61 µM [falling, partial curve].

On to `COc1cc2ccccc2cc1C(=O)OCC(=O)N1CCOCC1`, for which the cell number change was -18.4%. Besides, under setting [1], the AC50 is 4.61 µM [falling, partial curve, poor fit]. `O=C(c1ccc(F)cc1)N1CCCC(C(=O)N2CCCCC2)C1` (stereo unspecified): the cell number change was -5.9%. The AC50 under setting [1] is 13 µM [rising, partial curve]. With `COc1ccc(CNC(=O)c2nnn(Cc3ccc(OC)cc3)c2N)cc1`, the cell number change is -31.1%. Also, the concentration at half-maximal activity (AC50) under setting [2] is 9.2 µM [falling, partial curve, poor fit]. Take `CC1CCCC(C)N1CCCNC(=O)c1csc2c1CCCCC2` (stereo unspecified): the cell number change amounted to 32.4%. In addition, under setting [2], the AC50 is 0.184 µM [rising, full curve, poor fit]. Consider `Cc1ccc(-c2nc3ccccc3c(=O)n2NC(=S)N(C)C)cc1`, for which the cell number change was found to be 12.7%. The AC50 under setting [1] is 0.58 µM [rising, full curve, poor fit]. In the case of `Cc1cc(=O)oc2c(C(=O)/C=C/c3ccccc3)c(O)ccc12`, the cell number change worked out at 21.2%. Also, the AC50 under setting [1] was 6.51 µM [rising, partial curve, poor fit].

On to `Cc1nn(-c2ccccc2)c(/N=C/c2ccccc2O)c1-c1ccccc1`, for which the cell number change was determined as 14.4%. Also, under setting [1], the concentration at half-maximal activity (AC50) was 9.2 µM [rising, partial curve]. Regarding `CCOc1ccc(Nc2cc(=O)oc3ccccc23)cc1`, under setting [1], the AC50 was 18.4 µM [falling, single point]. Regarding `CN1CC2([N+](=O)[O-])CC=C(Oc3ccccc3)C([N+](=O)[O-])(C1)C2` (stereo unspecified), the cell number change was -39.8%. The half-maximal activity concentration (AC50) under setting [2] is 13 µM [falling, partial curve, poor fit]. For the same compound, under setting [1], the half-maximal activity concentration (AC50) was 18.4 µM [falling, single point].

For `Cc1ccc(-n2c(N)c(C(=O)Nc3c(C)n(C)n(-c4ccccc4)c3=O)c3nc4ccccc4nc32)cc1C`, the cell number change is -26.4%. The concentration at half-maximal activity (AC50) under setting [1] is 29.1 µM [falling, single point].

For the compound `O=C(N[C@@H](Cc1ccccc1)C(=O)NCCc1c[nH]c2ccccc12)c1ccco1`, the cell number change amounted to 1.68%. Moreover, under setting [1], the AC50 is 0.206 µM [rising, single point]. `CN(C)C(=O)CN1c2cccc3cccc(c23)S1(=O)=O`: the cell number change turned out to be 22.8%. Also, the half-maximal activity concentration (AC50) under setting [1] was 0.00461 µM [rising, full curve, poor fit]. For `CS(=O)(=O)N1CCC(Oc2ccccc2C(=O)NC2CCCCCC2)CC1`, the cell number change is -14.9%. Further, under setting [1], the half-maximal activity concentration (AC50) was 0.651 µM [falling, full curve]. For `Cc1ccc2oc(C(=O)NCc3ncc(C)[nH]3)c(C)c2c1`, the cell number change was 38.4%. Besides, the AC50 under setting [1] was 29.1 µM [rising, single point].

On to `Cc1ccc(-c2csc3ncn(CC(=O)O)c(=O)c23)cc1C`, for which the cell number change was -5.22%. For `O=C(CSC1=NS(=O)(=O)c2cc(Cl)ccc2N1)Nc1cccc(F)c1`, the AC50 under setting [1] is 29.1 µM [rising, single point].

For `CCCCN(CCCNC(=O)C1CCCN(S(=O)(=O)CC)C1)Cc1ccccc1` (stereo unspecified), the cell number change was -15.4%. Moreover, the AC50 under setting [1] is 0.0164 µM [falling, full curve, poor fit].

On to `N=C1SC(c2ccccc2)C(=O)N1c1ncc(Cc2ccccc2)s1` (stereo unspecified), for which the cell number change was -58.6%. Under setting [2], the concentration at half-maximal activity (AC50) is 0.58 µM [falling, partial curve]. Consider `COc1ccc(S(=O)(=O)N2CCN(CC(=O)c3ccc(O)c(O)c3)CC2)cc1`, for which the cell number change is -48.5%. Under setting [1], the concentration at half-maximal activity (AC50) was 29.1 µM [falling, single point]. Consider `CCN(CC)Cc1c(C(=O)OC)nnn1-c1nonc1N`, for which the cell number change is 9.8%. Also, the AC50 under setting [1] is 2.31 µM [falling, full curve, poor fit]. As to `O=C(Cn1ncc2c3ccccc3n(Cc3ccccc3F)c2c1=O)NCC1CCCO1` (stereo unspecified), the half-maximal activity concentration (AC50) under setting [1] was 5.17 µM [falling, single point]. In the case of `COC(=O)C(C)NC(=O)C1CCCN1S(=O)(=O)c1cc(C)c(Cl)cc1C` (stereo unspecified), the cell number change was -2.21%. Besides, the AC50 under setting [1] is 0.651 µM [falling, full curve]. In the case of `Cc1sc2ncnc(SCC(=O)N3c4ccccc4Sc4ccc(Cl)cc43)c2c1C`, the cell number change turned out to be 10.6%. The AC50 under setting [1] is 2.91 µM [rising, single point].

For `CC(C)(C)NC(=O)CN1C(=O)NC(c2ccccc2)(c2ccccc2)C1=O`, the cell number change was 0.794%. For the same compound, the concentration at half-maximal activity (AC50) under setting [1] is 6.51 µM [rising, single point]. Turning to `Oc1ccc(/C=N/n2c(COc3ccccc3)n[nH]c2=S)cc1O`, the cell number change was 12.5%. On to `C=CCC(C(=O)OC)(C(=O)OC)c1ccccc1[N+](=O)[O-]`, for which the cell number change is 3.08%. Further, under setting [1], the AC50 is 2.91 µM [rising, single point].
